Measured values from the supplement of paper PMC7666118.
The other results are listed elsewhere or left out.

By UniProt entry, the sequences of proteins in these tests, tags left out. Where a name states a change or a piece, a line headed by the entry shows the natural chain unless it says otherwise.
UniProt Q8WUF5: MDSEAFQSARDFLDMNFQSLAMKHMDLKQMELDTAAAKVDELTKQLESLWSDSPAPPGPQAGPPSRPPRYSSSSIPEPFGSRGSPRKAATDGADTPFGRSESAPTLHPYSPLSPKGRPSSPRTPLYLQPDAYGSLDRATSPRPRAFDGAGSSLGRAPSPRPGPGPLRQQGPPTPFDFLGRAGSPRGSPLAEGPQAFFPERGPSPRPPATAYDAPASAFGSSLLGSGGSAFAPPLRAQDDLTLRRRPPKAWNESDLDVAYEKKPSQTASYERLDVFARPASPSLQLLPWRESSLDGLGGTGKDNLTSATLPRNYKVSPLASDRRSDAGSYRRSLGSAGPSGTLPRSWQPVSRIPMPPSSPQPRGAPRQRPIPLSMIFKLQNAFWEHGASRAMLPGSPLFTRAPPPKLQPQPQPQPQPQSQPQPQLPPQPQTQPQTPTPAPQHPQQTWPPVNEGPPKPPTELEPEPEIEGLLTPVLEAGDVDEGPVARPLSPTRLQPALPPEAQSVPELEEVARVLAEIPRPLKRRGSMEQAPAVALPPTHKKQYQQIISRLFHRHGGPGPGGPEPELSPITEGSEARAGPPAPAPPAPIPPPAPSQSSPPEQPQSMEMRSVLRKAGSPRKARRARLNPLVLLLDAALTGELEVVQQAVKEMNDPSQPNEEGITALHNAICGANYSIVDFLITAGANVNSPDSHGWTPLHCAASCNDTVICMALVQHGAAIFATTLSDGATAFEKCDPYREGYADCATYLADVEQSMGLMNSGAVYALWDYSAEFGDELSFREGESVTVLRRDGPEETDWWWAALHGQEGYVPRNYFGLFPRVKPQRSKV
UniProt P42785: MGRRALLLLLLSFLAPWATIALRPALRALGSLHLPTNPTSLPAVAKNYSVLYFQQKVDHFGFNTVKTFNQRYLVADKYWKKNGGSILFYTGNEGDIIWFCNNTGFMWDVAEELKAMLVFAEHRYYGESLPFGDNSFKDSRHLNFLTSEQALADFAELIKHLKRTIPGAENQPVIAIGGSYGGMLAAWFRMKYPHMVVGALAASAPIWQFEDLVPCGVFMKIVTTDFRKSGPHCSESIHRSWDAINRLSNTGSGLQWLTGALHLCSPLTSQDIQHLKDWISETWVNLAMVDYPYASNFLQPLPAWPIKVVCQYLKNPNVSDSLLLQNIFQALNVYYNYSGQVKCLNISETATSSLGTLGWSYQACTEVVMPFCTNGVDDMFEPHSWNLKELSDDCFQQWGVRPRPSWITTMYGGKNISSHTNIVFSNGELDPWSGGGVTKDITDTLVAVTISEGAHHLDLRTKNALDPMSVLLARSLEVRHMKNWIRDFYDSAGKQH
UniProt Q14914: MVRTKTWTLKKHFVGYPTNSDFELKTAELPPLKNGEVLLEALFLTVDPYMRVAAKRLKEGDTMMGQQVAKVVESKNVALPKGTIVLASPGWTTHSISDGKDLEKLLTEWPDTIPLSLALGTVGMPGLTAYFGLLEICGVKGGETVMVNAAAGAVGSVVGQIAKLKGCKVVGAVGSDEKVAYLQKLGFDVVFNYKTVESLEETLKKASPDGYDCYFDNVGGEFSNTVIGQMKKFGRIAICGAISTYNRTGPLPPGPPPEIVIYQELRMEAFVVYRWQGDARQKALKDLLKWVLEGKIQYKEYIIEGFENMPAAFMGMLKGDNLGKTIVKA
UniProt P50897: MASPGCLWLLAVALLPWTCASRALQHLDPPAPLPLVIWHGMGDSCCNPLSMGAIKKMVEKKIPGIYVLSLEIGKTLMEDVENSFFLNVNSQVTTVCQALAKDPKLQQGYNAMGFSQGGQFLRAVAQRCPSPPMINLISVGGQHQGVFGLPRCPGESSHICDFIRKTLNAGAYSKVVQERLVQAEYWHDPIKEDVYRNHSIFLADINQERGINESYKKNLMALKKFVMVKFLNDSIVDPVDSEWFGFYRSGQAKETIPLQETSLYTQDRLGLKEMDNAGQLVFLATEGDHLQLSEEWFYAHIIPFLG
UniProt Q6P2P2: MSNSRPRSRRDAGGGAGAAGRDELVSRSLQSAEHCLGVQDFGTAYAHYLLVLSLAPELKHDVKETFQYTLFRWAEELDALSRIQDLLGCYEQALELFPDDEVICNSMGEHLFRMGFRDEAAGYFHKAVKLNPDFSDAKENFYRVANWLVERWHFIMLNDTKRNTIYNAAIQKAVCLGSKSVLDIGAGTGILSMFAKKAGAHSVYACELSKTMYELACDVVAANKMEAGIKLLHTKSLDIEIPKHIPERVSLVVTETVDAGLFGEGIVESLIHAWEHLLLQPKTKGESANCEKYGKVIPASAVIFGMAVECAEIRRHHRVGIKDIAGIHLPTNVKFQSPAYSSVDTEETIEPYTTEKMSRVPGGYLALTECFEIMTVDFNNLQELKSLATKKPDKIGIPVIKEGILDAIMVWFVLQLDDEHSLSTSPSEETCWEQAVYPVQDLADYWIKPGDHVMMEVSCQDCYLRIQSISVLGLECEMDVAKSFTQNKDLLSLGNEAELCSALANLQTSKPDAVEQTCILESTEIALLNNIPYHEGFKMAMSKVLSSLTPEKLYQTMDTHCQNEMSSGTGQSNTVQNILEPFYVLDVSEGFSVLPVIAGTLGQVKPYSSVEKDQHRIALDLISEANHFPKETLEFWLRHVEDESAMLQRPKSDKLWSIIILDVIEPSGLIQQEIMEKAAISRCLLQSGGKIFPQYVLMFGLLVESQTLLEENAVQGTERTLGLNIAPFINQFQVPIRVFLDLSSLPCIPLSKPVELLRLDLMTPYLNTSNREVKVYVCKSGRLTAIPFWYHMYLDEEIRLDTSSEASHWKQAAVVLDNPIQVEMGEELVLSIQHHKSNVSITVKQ
UniProt Q96QH2: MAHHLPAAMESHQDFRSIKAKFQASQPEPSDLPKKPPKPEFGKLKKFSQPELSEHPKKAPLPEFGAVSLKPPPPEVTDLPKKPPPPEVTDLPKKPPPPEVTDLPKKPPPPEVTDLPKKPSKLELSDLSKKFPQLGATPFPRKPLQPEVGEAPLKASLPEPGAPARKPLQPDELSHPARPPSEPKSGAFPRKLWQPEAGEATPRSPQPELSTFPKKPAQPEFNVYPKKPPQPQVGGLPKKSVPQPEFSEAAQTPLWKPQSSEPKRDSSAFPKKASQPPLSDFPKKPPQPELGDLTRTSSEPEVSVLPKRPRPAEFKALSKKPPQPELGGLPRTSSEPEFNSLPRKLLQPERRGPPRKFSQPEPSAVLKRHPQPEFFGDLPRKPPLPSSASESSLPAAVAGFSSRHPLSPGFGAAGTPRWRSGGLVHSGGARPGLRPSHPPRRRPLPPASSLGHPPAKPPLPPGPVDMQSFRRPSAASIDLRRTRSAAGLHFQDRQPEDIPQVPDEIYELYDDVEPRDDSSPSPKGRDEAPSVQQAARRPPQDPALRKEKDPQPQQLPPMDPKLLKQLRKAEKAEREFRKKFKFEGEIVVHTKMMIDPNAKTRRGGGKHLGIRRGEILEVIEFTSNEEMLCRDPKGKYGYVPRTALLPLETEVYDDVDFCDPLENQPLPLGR
UniProt Q8N8N7: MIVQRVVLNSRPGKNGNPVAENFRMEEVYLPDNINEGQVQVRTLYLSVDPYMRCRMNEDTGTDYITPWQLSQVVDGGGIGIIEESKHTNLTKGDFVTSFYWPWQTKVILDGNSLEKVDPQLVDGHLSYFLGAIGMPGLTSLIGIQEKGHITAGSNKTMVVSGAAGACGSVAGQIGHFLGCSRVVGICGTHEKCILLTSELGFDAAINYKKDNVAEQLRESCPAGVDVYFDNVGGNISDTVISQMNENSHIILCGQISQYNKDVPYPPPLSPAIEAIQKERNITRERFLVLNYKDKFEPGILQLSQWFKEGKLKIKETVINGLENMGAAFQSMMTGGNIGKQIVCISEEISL
UniProt Q16537, whole entry: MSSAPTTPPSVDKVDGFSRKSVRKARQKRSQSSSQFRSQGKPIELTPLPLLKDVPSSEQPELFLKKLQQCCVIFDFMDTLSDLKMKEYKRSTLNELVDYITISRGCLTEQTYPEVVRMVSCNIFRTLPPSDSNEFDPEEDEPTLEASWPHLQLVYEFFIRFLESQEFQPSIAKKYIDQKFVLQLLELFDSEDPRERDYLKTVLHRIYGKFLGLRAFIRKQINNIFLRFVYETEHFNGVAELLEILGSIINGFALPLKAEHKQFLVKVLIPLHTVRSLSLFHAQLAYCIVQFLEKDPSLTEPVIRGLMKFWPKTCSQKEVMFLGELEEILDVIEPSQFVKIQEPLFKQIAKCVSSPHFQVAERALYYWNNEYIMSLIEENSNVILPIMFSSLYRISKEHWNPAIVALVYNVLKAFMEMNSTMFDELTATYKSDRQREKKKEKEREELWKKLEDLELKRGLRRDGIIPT
UniProt Q05209: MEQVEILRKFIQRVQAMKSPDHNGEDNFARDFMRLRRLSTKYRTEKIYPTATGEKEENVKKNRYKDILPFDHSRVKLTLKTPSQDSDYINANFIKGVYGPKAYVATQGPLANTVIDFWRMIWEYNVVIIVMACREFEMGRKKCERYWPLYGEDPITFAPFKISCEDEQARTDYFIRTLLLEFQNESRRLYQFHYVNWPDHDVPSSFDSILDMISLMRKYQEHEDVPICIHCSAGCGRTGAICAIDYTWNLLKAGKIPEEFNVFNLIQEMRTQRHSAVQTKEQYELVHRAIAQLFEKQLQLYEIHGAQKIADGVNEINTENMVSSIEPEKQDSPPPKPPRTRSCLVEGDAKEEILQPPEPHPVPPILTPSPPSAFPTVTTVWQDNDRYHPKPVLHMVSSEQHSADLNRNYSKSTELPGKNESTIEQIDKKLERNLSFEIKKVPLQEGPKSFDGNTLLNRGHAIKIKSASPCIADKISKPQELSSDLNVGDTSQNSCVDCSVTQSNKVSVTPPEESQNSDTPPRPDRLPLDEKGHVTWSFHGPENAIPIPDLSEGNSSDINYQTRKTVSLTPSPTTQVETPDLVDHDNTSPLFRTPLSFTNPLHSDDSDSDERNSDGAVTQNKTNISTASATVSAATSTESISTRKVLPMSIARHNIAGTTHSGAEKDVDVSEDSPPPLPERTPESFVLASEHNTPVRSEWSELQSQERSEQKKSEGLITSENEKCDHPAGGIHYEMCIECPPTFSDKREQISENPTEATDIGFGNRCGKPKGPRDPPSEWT
UniProt P49005: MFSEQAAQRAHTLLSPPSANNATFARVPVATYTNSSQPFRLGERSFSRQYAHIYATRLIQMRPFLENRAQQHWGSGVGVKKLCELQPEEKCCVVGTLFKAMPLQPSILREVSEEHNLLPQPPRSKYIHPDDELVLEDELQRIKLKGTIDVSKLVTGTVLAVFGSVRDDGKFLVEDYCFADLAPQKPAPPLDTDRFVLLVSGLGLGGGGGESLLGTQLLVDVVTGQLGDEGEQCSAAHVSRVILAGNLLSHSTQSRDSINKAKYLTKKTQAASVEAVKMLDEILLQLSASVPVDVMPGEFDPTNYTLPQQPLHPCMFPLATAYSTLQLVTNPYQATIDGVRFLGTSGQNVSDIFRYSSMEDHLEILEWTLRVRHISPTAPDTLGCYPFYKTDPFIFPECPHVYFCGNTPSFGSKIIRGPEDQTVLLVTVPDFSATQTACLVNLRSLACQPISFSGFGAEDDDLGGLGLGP
UniProt P41236: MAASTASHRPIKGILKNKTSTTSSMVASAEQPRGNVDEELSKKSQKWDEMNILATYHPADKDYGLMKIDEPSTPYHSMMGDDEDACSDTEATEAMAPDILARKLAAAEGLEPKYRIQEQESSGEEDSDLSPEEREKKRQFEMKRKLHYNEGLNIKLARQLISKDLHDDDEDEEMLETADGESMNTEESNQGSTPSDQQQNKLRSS
UniProt P36873, whole entry, looked up: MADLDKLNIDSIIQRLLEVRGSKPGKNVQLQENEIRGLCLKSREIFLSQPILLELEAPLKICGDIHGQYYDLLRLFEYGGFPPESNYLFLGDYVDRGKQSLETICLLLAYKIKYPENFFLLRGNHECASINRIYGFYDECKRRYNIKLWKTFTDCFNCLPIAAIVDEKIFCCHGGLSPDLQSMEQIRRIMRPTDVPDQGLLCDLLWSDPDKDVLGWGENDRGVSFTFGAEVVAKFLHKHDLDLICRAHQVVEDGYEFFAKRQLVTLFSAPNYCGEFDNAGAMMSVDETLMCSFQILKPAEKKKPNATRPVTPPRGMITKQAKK
UniProt P49720: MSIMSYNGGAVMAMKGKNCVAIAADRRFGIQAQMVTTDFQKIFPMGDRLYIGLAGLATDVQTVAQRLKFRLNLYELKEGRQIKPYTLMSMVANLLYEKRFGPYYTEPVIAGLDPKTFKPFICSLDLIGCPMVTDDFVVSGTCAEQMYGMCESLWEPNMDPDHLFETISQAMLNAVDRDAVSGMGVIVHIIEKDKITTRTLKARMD
UniProt Q9NVS9: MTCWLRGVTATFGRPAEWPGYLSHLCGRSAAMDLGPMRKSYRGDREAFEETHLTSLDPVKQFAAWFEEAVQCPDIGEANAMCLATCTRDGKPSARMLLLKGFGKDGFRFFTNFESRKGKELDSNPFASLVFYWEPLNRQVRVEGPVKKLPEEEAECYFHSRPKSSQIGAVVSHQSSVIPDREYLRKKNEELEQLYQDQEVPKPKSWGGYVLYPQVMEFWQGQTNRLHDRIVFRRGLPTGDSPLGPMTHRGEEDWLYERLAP

Compound: COc1ccc(Cn2ccc3cc(C)c(C(=O)NO)cc32)cc1
Test: dose-dependent thermal stabilisation call (2D-TPP, DLPTP, 10% FDR) (binary (1 = stabilised)); higher = stabilised by the compound
Conditions: system: HL-60 intact cells; concentration range 0.04-10 µM
Protocol: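 2D thermal proteome profiling in intact HL-60 cells treated with BRD-3811 (0, 0.04, 0.29, 2, 10 uM) for 90 min at 37 C, then heated 3 min at one of 12 temperatures (42-63.9 C). Soluble protein was quantified by TMT10 MS. The value is the DLPTP call of the paper: dose-dependent thermal stabilisation over all temperatures at 10% FDR (F-test of a dose-response against a flat model); one experiment, one call per tested protein.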

Target | dose-dependent thermal stabilisation call
PPP1R13L (UniProt Q8WUF5) | inactive: 0
PPIA (UniProt P62937) | inactive: 0
PSMD6 (UniProt Q15008) | inactive: 0
PRCP (UniProt P42785) | inactive: 0
PTGR1 (UniProt Q14914) | inactive: 0
PTP4A2 (UniProt Q12974) | inactive: 0
PPT1 (UniProt P50897) | inactive: 0
PRKRIR (UniProt O43422) | inactive: 0
PSMD1 (UniProt Q99460) | inactive: 0
PRMT10 (UniProt Q6P2P2) | inactive: 0
PRKCB (UniProt P05771) | inactive: 0
PTCD3 (UniProt Q96EY7) | inactive: 0
PPP1R12A (UniProt O14974) | inactive: 0
POLG2 (UniProt Q9UHN1) | inactive: 0
PREB (UniProt Q9HCU5) | inactive: 0
POLR1A (UniProt O95602) | inactive: 0
PTPN11 (UniProt Q06124) | inactive: 0
PRAM1 (UniProt Q96QH2) | inactive: 0
PSMD5 (UniProt Q16401) | inactive: 0
PTGR2 (UniProt Q8N8N7) | inactive: 0

Quoted from the listing:
Under dose-dependent thermal stabilisation call, PTCD3 (UniProt Q96EY7) reads inactive: 0
Under dose-dependent thermal stabilisation call, POLG2 (UniProt Q9UHN1) reads inactive: 0

Following part.

Target | dose-dependent thermal stabilisation call
PSME2 (UniProt Q9UL46) | inactive: 0
PNPT1 (UniProt Q8TCS8) | inactive: 0
PPP2R5E (UniProt Q16537) | inactive: 0
PRPS2 (UniProt P11908) | active: 1
PRCC (UniProt Q92733) | inactive: 0
PTPN12 (UniProt Q05209) | inactive: 0
PSMB7 (UniProt Q99436) | inactive: 0
POLD2 (UniProt P49005) | inactive: 0
PPP1R2 (UniProt P41236) | inactive: 0
PPIL4 (UniProt Q8WUA2) | inactive: 0
PSMB4 (UniProt P28070) | inactive: 0
POGZ (UniProt Q7Z3K3) | inactive: 0
PPP2R5A (UniProt Q15172) | inactive: 0
PTPN6 (UniProt P29350) | inactive: 0
PPCS (UniProt Q9HAB8) | inactive: 0
PPP1CC (UniProt P36873) | inactive: 0
PSMB3 (UniProt P49720) | inactive: 0
PRKRA (UniProt O75569) | inactive: 0
PNPO (UniProt Q9NVS9) | inactive: 0
POLR2A (UniProt P24928) | inactive: 0
